Results are given in words; binding and its absence hold for the method and conditions named. Binding seen in cells or lysates may run through a third protein. Binding can be weak; no strength is given.
Biological target: GFP-CG4996 (Drosophila melanogaster) (UniProt A1ZAY8)
Test: co-IP; GFP-Trap (ChromoTek) precipitation from extracts of cotransfected S2 cells; anti-myc immunoblot; inputs 10%

binding	Substance
binds	CG3338-Myc (Vps53) (from UniProt Q9VQY8)
binds	CG7371-Myc (Vps52) (from UniProt Q9VMQ8)

Source: PMC4232348
